Measurements reported in paper PMC7861563, “FOXP1 Interacts with MyoD to Repress its Transcription and Myoblast Conversion” (Journal of cellular signaling, 2021).
No constants are given. Whether binding was seen depends on the method and setting. Binding can be weak; no strength is given. For some of these results: Binding seen in cells or lysates may run through a third protein. For some of these results: Where a sequence is shown, tags or fusion partners need not be part of it. One block for each binder: values may come before it.

Assays:
[1] = molecular target: MYC-tagged FOXP1, in vitro translated (murine); assay: co-IP; MYC-tagged FOXP1 and HA-tagged partners transcribed and translated in rabbit reticulocyte lysates, non-dissociating conditions; Co-IP by FOXP1, immunoblot with anti-HA mAb
[2] = molecular target: FOXP1-MyoD complex on the MCK enhancer probe (murine | not stated); assay: native gel or EMSA; full-length proteins synthesized in reticulocyte lysates; super-shift of complexes on the 32P-labeled MCK enhancer probe; 4% nondenaturing polyacrylamide gel in 0.25X TBE

binding [1]: no binding
B1: HA-MyoG, in vitro translated (protein, UniProt P12979 1-224)
chain: MELYETSPYFYQEPHFYDGENYLPVHLQGFEPPGYERTELSLSPEARGPLEEKGLGTPEHCPGQCLPWACKVCKRKSVSVDRRRAATLREKRRLKKVNEAFEALKRSTLLNPNQRLPKVEILRSAIQYIERLQALLSSLNQEERDLRYRGGGGPQPMVPSECNSHSASCSPEWGNALEFGPNPGDHLLAADPTDAHNLHSLTSIVDSITVEDMSVAFPDETMPN

B2: ID1, in vitro translated (protein, UniProt P20067 1-168)
chain: MKVASGSAAAAAGPSCSLKAGRTAGEVVLGLSEQSVAISRCAGTRLPALLDEQQVNVLLYDMNGCYSRLKELVPTLPQNRKVSKVEILQHVIDYIRDLQLELNSESEVGTTGGRGLPVRAPLSTLNGEISALAAEVRSESEYYIILQWETEATGGGCPPSLLFRRIAI
binding [2]: binds

binding [1]: binds
B3: HA-FOXP3, in vitro translated (protein, UniProt Q99JB6 1-429)
chain: MPNPRPAKPMAPSLALGPSPGVLPSWKTAPKGSELLGTRGSGGPFQGRDLRSGAHTSSSLNPLPPSQLQLPTVPLVMVAPSGARLGPSPHLQALLQDRPHFMHQLSTVDAHAQTPVLQVRPLDNPAMISLPPPSAATGVFSLKARPGLPPGINVASLEWVSREPALLCTFPRSGTPRKDSNLLAAPQGSYPLLANGVCKWPGCEKVFEEPEEFLKHCQADHLLDEKGKAQCLLQREVVQSLEQQLELEKEKLGAMQAHLAGKMALAKAPSVASMDKSSCCIVATSTQGSVLPAWSAPREAPDGGLFAVRRHLWGSHGNSSFPEFFHNMDYFKYHNMRPPFTYATLIRWAILEAPERQRTLNEIYHWFTRMFAYFRNHPATWKNAIRHNLSLHKCFVRVESEKGAVWTVDEFEFRKKRSQRPNKCSNPCP

binding [1]: no binding
B4: HA-MRF4, in vitro translated (protein, UniProt P15375 1-242)
chain: MMMDLFETGSYFFYLDGENVTLQPLEVAEGSPLYPGSDGTLSPCQDQMPQEAGSDSSGEEHVLAPPGLQPPHCPGQCLIWACKTCKRKSAPTDRRKAATLRERRRLKKINEAFEALKRRTVANPNQRLPKVEILRSAISYIERLQDLLHRLDQQEKMQELGVDPYSYKPKQEILEGADFLRTCSPQWPSVSDHSRGLVITAKEGGANVDASASSSLQRLSSIVDSISSEERKLPSVEEVVEK
